This is one part of the list.
Columns and labels:
Assay in all cases: log2 fold change, soluble protein after heating vs DMSO (PISA); higher = thermal stabilisation; K562 cells, 10 uM, 30 min; active = over 0.2 and 3.5 SD of the protein, either way, in both replicates (recomputed)
[1] = compound: CC1=C(C=C(C=C1)NC(=O)C2=CC(=CC=C2)C(C)(C)C#N)NC3=CC4=C(C=C3)N=CN(C4=O)C
Summary of the method: (§1)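 Thermal stability values are relative to control samples and come from duplicates. They are expressed as log2 fold changes. For measurement, K562 cells (2×10^6 cells/mL) received 10 μM compound for 30 min, and aliquots were heated for 3 min over 48°C-58°C, pooled, and extracted at 4°C in PBS with 0.5% NP-40. Soluble protein, the supernatant after 21,000xg for 90 min, was quantified by TMTpro 16plex LC-MS/MS with equalised channel sums.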

Protein sequences, listed by entry. Tags and fused reporters are not part of them. Lines headed by an entry give the natural chain unless they say otherwise; changes in a name come on top.
UniProt Q01581: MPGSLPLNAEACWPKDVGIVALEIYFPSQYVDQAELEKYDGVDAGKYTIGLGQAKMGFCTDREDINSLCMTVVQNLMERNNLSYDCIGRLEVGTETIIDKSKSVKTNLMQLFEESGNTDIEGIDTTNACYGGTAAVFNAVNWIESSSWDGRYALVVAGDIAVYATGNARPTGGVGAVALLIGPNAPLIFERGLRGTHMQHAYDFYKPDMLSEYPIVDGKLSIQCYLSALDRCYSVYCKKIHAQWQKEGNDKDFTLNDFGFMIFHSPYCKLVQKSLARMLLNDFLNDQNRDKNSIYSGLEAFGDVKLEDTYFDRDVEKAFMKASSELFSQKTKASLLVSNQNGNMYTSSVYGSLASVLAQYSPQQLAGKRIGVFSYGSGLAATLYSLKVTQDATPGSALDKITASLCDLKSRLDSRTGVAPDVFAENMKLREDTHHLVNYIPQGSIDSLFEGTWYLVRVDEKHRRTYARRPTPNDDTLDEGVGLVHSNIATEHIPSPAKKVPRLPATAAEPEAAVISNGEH
UniProt Q5T440: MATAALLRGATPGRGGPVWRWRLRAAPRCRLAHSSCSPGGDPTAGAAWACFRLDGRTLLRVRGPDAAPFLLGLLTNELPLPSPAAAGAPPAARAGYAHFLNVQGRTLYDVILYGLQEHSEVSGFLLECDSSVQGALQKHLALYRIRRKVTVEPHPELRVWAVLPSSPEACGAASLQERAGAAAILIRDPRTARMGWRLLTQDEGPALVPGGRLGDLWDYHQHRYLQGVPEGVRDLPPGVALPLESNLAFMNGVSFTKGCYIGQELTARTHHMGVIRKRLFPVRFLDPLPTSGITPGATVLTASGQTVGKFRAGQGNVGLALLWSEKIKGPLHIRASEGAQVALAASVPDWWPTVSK
UniProt Q9NSE4: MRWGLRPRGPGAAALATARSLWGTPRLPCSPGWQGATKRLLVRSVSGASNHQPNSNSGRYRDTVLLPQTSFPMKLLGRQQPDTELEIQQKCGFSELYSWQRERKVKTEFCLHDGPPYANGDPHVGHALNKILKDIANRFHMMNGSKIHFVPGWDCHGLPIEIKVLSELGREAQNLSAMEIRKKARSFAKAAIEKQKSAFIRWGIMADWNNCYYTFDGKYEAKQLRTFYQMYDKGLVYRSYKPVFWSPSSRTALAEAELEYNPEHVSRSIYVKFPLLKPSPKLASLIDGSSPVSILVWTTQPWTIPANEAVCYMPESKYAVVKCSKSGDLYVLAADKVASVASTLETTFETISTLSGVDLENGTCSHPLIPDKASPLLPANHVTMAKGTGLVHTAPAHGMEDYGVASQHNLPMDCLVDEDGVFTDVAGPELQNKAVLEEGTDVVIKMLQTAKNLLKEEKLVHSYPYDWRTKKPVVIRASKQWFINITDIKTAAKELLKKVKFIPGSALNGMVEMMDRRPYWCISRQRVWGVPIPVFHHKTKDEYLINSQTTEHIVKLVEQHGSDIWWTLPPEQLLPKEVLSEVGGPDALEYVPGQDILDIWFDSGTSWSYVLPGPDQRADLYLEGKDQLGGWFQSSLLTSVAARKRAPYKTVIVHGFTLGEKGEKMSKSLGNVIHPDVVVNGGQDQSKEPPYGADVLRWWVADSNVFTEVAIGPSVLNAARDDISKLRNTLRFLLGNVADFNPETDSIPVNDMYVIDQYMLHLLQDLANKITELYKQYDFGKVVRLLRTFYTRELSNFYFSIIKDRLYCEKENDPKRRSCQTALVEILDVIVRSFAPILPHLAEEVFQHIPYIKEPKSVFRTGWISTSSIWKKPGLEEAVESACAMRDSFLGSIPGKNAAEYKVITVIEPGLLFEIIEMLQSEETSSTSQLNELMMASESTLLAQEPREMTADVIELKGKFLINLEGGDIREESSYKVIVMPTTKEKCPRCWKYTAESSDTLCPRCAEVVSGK
UniProt Q92506: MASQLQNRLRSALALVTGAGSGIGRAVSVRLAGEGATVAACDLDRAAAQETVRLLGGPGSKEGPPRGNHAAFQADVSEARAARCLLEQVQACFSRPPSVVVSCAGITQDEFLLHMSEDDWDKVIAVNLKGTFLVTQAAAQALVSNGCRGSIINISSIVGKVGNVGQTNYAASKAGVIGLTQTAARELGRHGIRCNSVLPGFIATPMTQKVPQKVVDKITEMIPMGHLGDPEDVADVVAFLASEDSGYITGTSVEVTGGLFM
UniProt O60921: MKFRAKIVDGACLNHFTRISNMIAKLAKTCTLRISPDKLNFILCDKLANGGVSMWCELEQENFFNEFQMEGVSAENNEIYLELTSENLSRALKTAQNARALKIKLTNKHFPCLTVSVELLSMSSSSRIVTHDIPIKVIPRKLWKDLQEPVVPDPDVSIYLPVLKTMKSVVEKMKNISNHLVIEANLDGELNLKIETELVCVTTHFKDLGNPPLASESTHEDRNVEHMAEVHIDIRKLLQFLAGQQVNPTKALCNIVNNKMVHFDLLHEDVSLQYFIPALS
UniProt Q9Y4L1: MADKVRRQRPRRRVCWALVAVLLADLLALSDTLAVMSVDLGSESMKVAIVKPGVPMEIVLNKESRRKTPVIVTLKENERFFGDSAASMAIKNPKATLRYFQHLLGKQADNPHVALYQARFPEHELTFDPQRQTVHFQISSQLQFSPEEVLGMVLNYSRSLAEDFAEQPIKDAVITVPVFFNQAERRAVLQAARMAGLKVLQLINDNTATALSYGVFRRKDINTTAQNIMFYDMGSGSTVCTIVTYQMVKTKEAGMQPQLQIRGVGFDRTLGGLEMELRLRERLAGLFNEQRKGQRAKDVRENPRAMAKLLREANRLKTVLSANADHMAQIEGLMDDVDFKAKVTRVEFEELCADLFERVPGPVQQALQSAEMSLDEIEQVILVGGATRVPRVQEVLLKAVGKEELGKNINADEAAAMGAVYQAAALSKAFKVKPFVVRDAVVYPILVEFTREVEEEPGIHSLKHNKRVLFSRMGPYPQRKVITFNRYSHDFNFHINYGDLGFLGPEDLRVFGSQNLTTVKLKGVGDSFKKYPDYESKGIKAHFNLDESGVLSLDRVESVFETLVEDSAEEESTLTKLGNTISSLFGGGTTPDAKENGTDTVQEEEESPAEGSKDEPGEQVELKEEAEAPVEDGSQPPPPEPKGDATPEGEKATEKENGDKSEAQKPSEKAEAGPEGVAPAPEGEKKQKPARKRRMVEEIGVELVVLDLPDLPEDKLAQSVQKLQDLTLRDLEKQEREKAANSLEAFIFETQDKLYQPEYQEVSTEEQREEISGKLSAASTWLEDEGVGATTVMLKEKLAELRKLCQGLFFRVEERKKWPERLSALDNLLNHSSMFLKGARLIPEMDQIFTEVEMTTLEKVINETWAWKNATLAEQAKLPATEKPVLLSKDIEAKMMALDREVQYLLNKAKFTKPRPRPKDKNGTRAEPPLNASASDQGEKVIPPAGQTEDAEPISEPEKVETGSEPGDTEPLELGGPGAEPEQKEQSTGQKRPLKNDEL
UniProt Q14773: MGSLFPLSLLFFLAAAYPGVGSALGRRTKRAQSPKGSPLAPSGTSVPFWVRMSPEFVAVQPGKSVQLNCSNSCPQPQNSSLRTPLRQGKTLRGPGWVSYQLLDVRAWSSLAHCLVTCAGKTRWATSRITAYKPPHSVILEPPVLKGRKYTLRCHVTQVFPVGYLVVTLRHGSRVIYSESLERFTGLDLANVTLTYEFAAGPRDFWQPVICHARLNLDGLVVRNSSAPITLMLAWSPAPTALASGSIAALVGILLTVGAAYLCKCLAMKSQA
UniProt Q9NX55: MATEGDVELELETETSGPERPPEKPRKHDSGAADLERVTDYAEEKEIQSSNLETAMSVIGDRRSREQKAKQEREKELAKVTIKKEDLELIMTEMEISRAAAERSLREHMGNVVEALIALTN
UniProt P49773: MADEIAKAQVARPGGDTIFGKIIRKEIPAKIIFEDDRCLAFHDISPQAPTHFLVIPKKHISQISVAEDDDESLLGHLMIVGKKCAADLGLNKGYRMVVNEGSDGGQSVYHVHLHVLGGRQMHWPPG
UniProt P51659: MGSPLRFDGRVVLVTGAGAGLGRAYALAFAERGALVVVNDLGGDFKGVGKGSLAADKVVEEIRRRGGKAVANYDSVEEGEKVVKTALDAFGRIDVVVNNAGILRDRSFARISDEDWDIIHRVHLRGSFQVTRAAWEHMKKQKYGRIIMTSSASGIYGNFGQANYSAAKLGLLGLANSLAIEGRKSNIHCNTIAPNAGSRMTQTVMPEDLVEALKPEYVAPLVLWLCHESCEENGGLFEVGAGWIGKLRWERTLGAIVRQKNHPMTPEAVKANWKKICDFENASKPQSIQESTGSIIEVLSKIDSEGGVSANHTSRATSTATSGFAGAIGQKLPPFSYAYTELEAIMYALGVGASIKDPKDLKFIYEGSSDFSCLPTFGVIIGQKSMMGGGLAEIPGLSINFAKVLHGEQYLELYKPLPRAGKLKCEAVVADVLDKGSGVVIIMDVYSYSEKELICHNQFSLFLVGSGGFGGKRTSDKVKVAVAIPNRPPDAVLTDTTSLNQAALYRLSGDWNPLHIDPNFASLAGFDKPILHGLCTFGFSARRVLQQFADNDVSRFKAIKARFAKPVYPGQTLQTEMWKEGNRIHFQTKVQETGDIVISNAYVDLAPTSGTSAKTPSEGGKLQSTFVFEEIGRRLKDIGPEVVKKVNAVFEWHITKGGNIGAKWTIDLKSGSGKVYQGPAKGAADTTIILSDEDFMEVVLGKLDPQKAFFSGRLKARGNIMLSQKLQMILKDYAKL
UniProt O43719: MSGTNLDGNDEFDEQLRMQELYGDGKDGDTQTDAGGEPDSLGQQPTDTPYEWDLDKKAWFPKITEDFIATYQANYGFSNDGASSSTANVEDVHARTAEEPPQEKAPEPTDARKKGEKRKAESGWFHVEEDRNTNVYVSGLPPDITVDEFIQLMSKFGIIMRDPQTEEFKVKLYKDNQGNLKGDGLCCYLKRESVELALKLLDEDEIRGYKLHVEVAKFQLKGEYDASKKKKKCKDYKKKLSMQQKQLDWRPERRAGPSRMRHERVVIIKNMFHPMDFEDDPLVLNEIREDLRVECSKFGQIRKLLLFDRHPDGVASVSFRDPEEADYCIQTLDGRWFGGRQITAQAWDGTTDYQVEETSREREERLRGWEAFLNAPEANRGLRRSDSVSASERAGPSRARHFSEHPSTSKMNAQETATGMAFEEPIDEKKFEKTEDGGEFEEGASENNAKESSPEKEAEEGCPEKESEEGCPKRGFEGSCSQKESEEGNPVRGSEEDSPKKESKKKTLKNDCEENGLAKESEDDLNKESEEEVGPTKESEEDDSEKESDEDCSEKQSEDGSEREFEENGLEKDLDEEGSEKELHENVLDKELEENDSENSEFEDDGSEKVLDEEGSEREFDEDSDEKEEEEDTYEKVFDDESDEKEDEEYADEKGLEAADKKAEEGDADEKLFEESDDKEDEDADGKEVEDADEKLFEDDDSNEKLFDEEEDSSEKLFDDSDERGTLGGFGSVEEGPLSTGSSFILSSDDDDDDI
UniProt O95757: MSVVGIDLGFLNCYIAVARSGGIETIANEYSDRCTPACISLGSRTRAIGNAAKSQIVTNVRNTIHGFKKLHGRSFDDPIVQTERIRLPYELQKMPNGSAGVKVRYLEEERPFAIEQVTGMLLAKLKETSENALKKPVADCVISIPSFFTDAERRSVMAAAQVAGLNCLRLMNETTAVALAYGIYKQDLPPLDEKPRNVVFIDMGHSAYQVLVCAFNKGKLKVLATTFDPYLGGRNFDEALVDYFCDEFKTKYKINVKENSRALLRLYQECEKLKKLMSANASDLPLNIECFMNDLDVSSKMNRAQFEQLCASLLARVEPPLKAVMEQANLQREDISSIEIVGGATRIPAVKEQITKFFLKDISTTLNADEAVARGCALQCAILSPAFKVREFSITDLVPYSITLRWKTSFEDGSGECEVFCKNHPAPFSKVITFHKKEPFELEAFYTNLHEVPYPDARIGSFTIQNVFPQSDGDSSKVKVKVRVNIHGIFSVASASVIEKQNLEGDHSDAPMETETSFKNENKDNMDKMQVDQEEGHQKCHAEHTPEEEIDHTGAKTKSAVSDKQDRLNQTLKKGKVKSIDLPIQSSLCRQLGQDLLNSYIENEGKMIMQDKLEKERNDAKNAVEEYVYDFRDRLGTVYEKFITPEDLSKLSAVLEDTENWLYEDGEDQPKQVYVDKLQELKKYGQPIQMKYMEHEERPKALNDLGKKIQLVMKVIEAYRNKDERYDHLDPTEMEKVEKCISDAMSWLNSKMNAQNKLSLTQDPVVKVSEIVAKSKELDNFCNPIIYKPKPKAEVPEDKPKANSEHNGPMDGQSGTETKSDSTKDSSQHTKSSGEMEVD

[2] = compound: CC1=C(C=C(C=C1)NC(=O)C2=CC(=CC=C2)N(C)C)NC(=O)C3=CC=C(C=C3)O
Summary of the method: as §1

[3] = compound: CC1=CC=C(C=C1)SC2=C3C=C(SC3=CN=C2)C(=O)N
Summary of the method: as §1

[4] = compound: CC1=NC(=CC=C1)C2=C(N=C(N2)C(C)(C)C)C3=CC4=NC=CN=C4C=C3
Summary of the method: as §1

[5] = compound: CCCCN(Cc1ccc(C(=O)NO)cc1)C(=O)Nc1ccccc1 [Nexturastat A]
Summary of the method: as §1

[6] = compound: CCCS(=O)(=O)Nc1ccc(F)c(C(=O)c2c[nH]c3ncc(-c4ccc(Cl)cc4)cc23)c1F [vemurafenib]
Summary of the method: as §1

[7] = compound: CCCS(=O)(=O)Nc1ccc(F)c(C(=O)c2c[nH]c3ncc(Cl)cc23)c1F
Summary of the method: as §1

[8] = compound: CCCc1cc(C)[nH]c(=O)c1CNC(=O)c1cc(-c2ccnc(N3CCN(C)CC3)c2)cc2c1cnn2C(C)C
Summary of the method: as §1

[9] = compound: CCN(CC)Cc1ccc2cc(COC(=O)Nc3ccc(C(=O)NO)cc3)ccc2c1 [givinostat]
Summary of the method: as §1

[10] = compound: CCN(CCCOc1ccc2c(Nc3cc(CC(=O)Nc4cccc(F)c4)[nH]n3)ncnc2c1)CCOP(=O)(O)O [barasertib]
Summary of the method: as §1

[11] = compound: CC[C@@H]1C(=O)N(C)c2cnc(Nc3ccc(C(=O)NC4CCN(C)CC4)cc3OC)nc2N1C1CCCC1
Summary of the method: as §1

[12] = compound: CC[C@@H]1C(=O)N(C)c2cnc(Nc3ccc(C(=O)N[C@H]4CC[C@H](N5CCN(CC6CC6)CC5)CC4)cc3OC)nc2N1C(C)C [volasertib]
Summary of the method: as §1

[13] = compound: CC[C@H](C)N1C=C(C2=C(C=C(C=C21)C3=CN=C(C=C3)N4CCNCC4)C(=O)NCC5=C(C=C(NC5=O)C)C)C
Summary of the method: as §1

[14] = compound: CC[C@H](C)[C@@H](C(=O)N[C@@H]([C@@H](C)O)C(=O)N[C@@H](CC(C)C)C(=O)[C@]1(CO1)C)NC(=O)[C@H]([C@@H](C)CC)N(C)C(=O)C [epoxomicin]
Summary of the method: as §1

[15] = compound: CCn1c(C(=O)N(C2CC2)C2CC2)cc2c3c(ncn3C)c(Nc3cc(C)n(C)n3)nc21
Summary of the method: as §1

[16] = compound: CCn1cc(-c2ccnc3[nH]c(-c4cccc(CN(C)C)c4)cc23)c(-c2ccc(NC(=O)N(C)C)cc2)n1
Summary of the method: as §1

[17] = compound: CN(C)CC(=O)Nc1ccc2[nH]c(=O)c3ccccc3c2c1
Summary of the method: as §1

[18] = compound: CN(CCOC1=CC=C(C=C1)C[C@H]2C(=O)NC(=O)S2)C3=CC=CC=N3 (racemic) [rosiglitazone]
Summary of the method: as §1

[19] = compound: CN1C2=C(C3=C1C(=O)N(N=C3)CC4=CC(=CC=C4)N)SC(=C2)S(=O)C
Summary of the method: as §1

[20] = compound: CN1CCC(CNc2ccc3ncc(-c4cccc(OC(F)(F)F)c4)n3n2)CC1
Summary of the method: as §1

Measured: log2 fold change

HMGCS1 (UniProt Q01581)
inactive: [1] -0.022 | [2] 0.019 | [3] -0.004 | [4] 0.008 | [5] -0.031 | [6] -0.041 | [7] -0.005 | [8] -0.011 | [9] -0.014 | [10] 0.017 | [11] 0.022 | [12] -0.007 | [13] 0.003 | [14] 0.039 | [15] 0.008 | [16] -0.025 | [17] -0.022 | [18] -0.009 | [19] -0.043 | [20] -0.165

IBA57 (UniProt Q5T440)
inactive: [1] -0.017 | [2] -0.042 | [3] -0.01 | [4] 0.005 | [5] -0.095 | [6] 0.038 | [7] 0.004 | [8] -0.03 | [9] -0.041 | [10] 0.017 | [11] 0.039 | [12] -0.008 | [13] 0.016 | [14] 0.042 | [15] -0.013 | [16] -0.005 | [17] 0.02 | [18] 0.017 | [19] -0.105 | [20] 0.014

IARS2 (UniProt Q9NSE4)
inactive: [1] -0.034 | [2] 0.015 | [3] 0.007 | [4] 0.039 | [5] -0.04 | [6] 0.002 | [7] 0.022 | [8] -0.02 | [9] -0.042 | [10] -0.007 | [11] 0.006 | [12] 0.022 | [13] -0.003 | [14] -0.02 | [15] 0.005 | [16] -0.015 | [17] -0.012 | [18] 0.008 | [19] -0.043 | [20] 0.051

HSPA14 (UniProt Q0VDF9)
inactive: [1] -0.026 | [2] -0.006 | [3] 0.023 | [4] 0.018 | [5] 0.175 | [6] 0.01 | [7] 0.05 | [8] 0.054 | [9] 0.099 | [10] 0.074 | [11] -0.025 | [12] -0.278 | [13] 0.11 | [14] -0.002 | [15] -0.092 | [16] -0.046 | [17] 0.014 | [18] 0.073 | [19] 0.093 | [20] -0.113

HSD17B8 (UniProt Q92506)
inactive: [1] 0.003 | [2] 0.01 | [3] 0.013 | [4] -0.018 | [5] -0.029 | [6] 0.063 | [7] -0.015 | [8] -0.041 | [9] -0.035 | [10] -0.015 | [11] 0.039 | [12] -0.005 | [13] -0.071 | [14] -0.046 | [15] 0.026 | [16] 0.069 | [17] 0.16 | [18] 0.016 | [19] -0.037 | [20] 0.102

HSPG2 (UniProt P98160)
inactive: [1] 0.005 | [2] 0.076 | [3] 0.013 | [4] -0.053 | [5] 0.127 | [6] 0.039 | [7] -0.045 | [8] 0.009 | [9] -0.015 | [10] 0.033 | [11] -0.002 | [12] 0.117 | [13] 0.003 | [14] -0.088 | [15] -0.003 | [16] -0.077 | [17] 0.011 | [18] 0.032 | [19] -0.005 | [20] 0.13

HUS1 (UniProt O60921)
inactive: [1] 0.02 | [2] 0 | [3] 0.014 | [4] 0.042 | [5] -0.067 | [6] -0.036 | [7] 0.007 | [8] -0.046 | [9] -0.061 | [10] 0.022 | [11] -0.046 | [12] -0.075 | [13] -0.042 | [14] 0.028 | [15] 0.005 | [16] -0.028 | [17] 0.004 | [18] 0.018 | [19] -0.086 | [20] -0.019

HYOU1 (UniProt Q9Y4L1)
inactive: [1] 0.003 | [2] -0.011 | [3] 0.015 | [4] -0.03 | [5] 0.03 | [6] -0.018 | [7] -0.08 | [8] 0.048 | [9] 0.025 | [10] -0.011 | [11] 0.002 | [12] -0.033 | [13] 0.02 | [14] 0.011 | [15] 0.045 | [16] 0.056 | [17] -0.007 | [18] -0.002 | [19] 0.031 | [20] 0.105

ICAM4 (UniProt Q14773)
inactive: [1] 0.016 | [2] 0 | [3] 0.002 | [4] -0.042 | [5] -0.038 | [6] 0.097 | [7] -0.06 | [8] -0.014 | [9] -0.046 | [10] 0.02 | [11] -0.015 | [12] -0.07 | [13] 0.039 | [14] 0.101 | [15] 0.026 | [16] -0.018 | [17] 0.122 | [18] 0.059 | [19] 0.023 | [20] -0.025

Fetched one by one from the list above, 2 records:
HSPG2 (UniProt P98160)
inactive: [1] 0.005 | [2] 0.076 | [3] 0.013 | [4] -0.053 | [5] 0.127 | [6] 0.039 | [7] -0.045 | [8] 0.009 | [9] -0.015 | [10] 0.033 | [11] -0.002 | [12] 0.117 | [13] 0.003 | [14] -0.088 | [15] -0.003 | [16] -0.077 | [17] 0.011 | [18] 0.032 | [19] -0.005 | [20] 0.13

HMGCS1 (UniProt Q01581)
inactive: [1] -0.022 | [2] 0.019 | [3] -0.004 | [4] 0.008 | [5] -0.031 | [6] -0.041 | [7] -0.005 | [8] -0.011 | [9] -0.014 | [10] 0.017 | [11] 0.022 | [12] -0.007 | [13] 0.003 | [14] 0.039 | [15] 0.008 | [16] -0.025 | [17] -0.022 | [18] -0.009 | [19] -0.043 | [20] -0.165

The results go on.

HYPK (UniProt Q9NX55)
inactive: [1] -0.003 | [2] 0.022 | [3] -0.012 | [4] 0.033 | [5] -0.015 | [6] 0.084 | [7] -0.007 | [8] -0.001 | [9] -0.011 | [10] 0.04 | [11] 0.043 | [12] 0.073 | [13] -0.019 | [14] -0.011 | [15] 0.055 | [16] -0.029 | [17] 0.01 | [18] 0.015 | [19] -0.038 | [20] -0.041

HINT1 (UniProt P49773)
inactive: [1] 0.009 | [2] -0.047 | [3] 0.062 | [4] 0.001 | [5] -0.091 | [6] -0.021 | [7] -0.025 | [8] -0.032 | [9] -0.053 | [10] 0.053 | [11] 0.014 | [12] 0.161 | [13] -0.027 | [14] 0.146 | [15] 0.016 | [16] -0.014 | [17] 0.028 | [18] -0.024 | [19] -0.032 | [20] 0.09

HSD17B4 (UniProt P51659)
inactive: [1] 0.032 | [2] 0.018 | [3] -0.007 | [4] -0.003 | [5] -0.051 | [6] 0.002 | [7] -0.009 | [8] -0.031 | [9] -0.026 | [10] 0.004 | [11] 0.079 | [12] 0.068 | [13] -0.002 | [14] -0.018 | [15] 0.005 | [16] -0.015 | [17] 0.018 | [18] -0.013 | [19] -0.043 | [20] 0.069

HSP90AA1 isoform 2 (UniProt P07900)
inactive: [1] 0.03 | [2] -0.011 | [3] 0.008 | [4] 0.02 | [5] -0.038 | [6] 0.049 | [7] 0.025 | [8] 0.006 | [9] -0.017 | [10] 0.01 | [11] -0.103 | [12] -0.044 | [13] 0.038 | [14] 0.039 | [15] 0.01 | [16] -0.051 | [17] 0.007 | [18] 0.037 | [19] -0.071 | [20] 0.004

HTATSF1 (UniProt O43719)
inactive: [1] 0.097 | [2] -0.123 | [3] -0.028 | [4] 0.031 | [5] 0.051 | [6] 0.041 | [7] -0.026 | [8] -0.056 | [9] 0.051 | [10] 0.05 | [11] -0.194 | [12] -0.292 | [13] 0.084 | [14] -0.037 | [15] -0.065 | [16] -0.013 | [17] 0.092 | [18] 0.038 | [19] -0.006 | [20] -0.294

HMCN1 (UniProt Q96RW7)
inactive: [1] -0.015 | [2] 0.543 | [3] 0.293 | [4] 0.03 | [5] -0.06 | [6] 0.205 | [7] -0.138 | [8] -0.175 | [9] -0.143 | [10] -0.082 | [11] 0.023 | [12] 0.057 | [13] 0 | [14] -0.45 | [15] 0.034 | [16] -0.052 | [17] 0.005 | [18] -0.011 | [19] 0.281 | [20] 0.13

HSPA4L (UniProt O95757)
inactive: [1] 0 | [2] -0.013 | [3] -0.017 | [4] 0.006 | [5] -0.066 | [6] 0.019 | [7] 0.007 | [8] -0.001 | [9] -0.022 | [10] 0.022 | [11] -0.015 | [12] -0.044 | [13] 0.031 | [14] 0.024 | [15] -0.006 | [16] -0.047 | [17] 0.004 | [18] 0.042 | [19] -0.048 | [20] -0.007

From the supplement of paper PMC10849652
